Results are given in words; binding and its absence hold for the method and conditions named. Some entries that bind do so weakly or less than the wild type. Blank lines part the entries; values can stand above or below the molecule they belong to.
What was measured:
[1] = target: Heat shock factor protein 1 (HSF1), purified recombinant (human) (UniProt Q00613); assay: condition: only normal conditions, without heat shock (monomer fraction of the SEC); SEC + native gel or EMSA; monomer fraction of purified HSF1 from Superdex 200 Increase (4°C, 25 mM HEPES pH 7.4, 0.3 M NaCl, 3 mM DTT, 10% glycerol), then Blue native PAGE and western blot; no heat shock; both purified
[2] = target: mCherry-HSF1 (human) (UniProt Q00613); assay: condition: only cells treated with translation inhibitors together with the stress; native gel or EMSA; HR CNE of lysates of H1299 cells with mCherry-HSF1; stress (42°C, bortezomib 300 nM, AUY-922 300 nM, 1 h) together with translation inhibitors (cycloheximide 10 μg/ml, anisomycin 40 μM, rocaglamide 100 nM; mTOR inhibitors in Fig 5F)
[3] = target: T1, Heat shock factor protein 1 (HSF1), purified recombinant (human), Q00613; assay: HDX-MS; monomeric, trimeric and heat-treated (42°C, 20 min) HSF1, 2 μM; exchange at 4°C for 30, 600 and 3600 s; pepsin digestion; both purified; settings: remark: other sources report otherwise
T1 chain: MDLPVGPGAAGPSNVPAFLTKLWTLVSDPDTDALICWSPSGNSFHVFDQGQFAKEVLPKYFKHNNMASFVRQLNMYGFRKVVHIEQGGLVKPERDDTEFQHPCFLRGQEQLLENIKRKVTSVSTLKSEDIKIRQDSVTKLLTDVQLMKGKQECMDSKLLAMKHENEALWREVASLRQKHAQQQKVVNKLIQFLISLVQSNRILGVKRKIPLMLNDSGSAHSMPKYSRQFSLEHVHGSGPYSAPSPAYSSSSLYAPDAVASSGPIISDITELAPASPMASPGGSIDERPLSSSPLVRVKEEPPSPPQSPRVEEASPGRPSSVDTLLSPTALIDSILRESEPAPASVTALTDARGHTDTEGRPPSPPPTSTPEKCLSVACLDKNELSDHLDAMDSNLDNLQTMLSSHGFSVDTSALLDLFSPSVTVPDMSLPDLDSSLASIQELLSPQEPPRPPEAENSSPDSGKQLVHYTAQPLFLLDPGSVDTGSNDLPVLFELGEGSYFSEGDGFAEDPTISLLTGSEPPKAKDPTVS

binding [1]: no binding
Molecule: Heat shock factor protein 1 (HSF1), purified recombinant (from UniProt Q00613-1 1-529)

binding [2]: no binding
Molecule: mCherry-HSF1 (from UniProt Q00613-1 1-529)

binding [3]: binds
B1: Heat shock factor protein 1 (HSF1), purified recombinant, Q00613-1 1-529 (natural protein)
chain: T1 chain
